# Results taken from the supplement of paper PMC3047530.
# ± gives the standard deviation of the averaged measurements. The list shows a part of the results. Many values rest on one well or one pass, so single values are uncertain.
# Tested on: Geomyces destructans
# Test: growth inhibition relative to DMSO control; higher = stronger growth inhibition
# Settings: 10 µM; 15 °C; incubation time 10 days
row,Structure (SMILES),growth inhibition [%]
1,Cc1cccc(C(=O)O)c1O,15.6
2,N=C(N)NC(=N)Nc1ccccc1,-10.8 ± 0.15
3,CC1(C)S[C@@H]2[C@H](NC(=O)[C@H](N)c3ccc(O)cc3)C(=O)N2[C@H]1C(=O)O,-34.2
4,Cc1cc(O)c(C)c(O)c1C(=O)O,-2.48
5,O=C(O)CCCCCCCCCCCC[C@@H]1C=CCC1,1.76
6,COc1cc(OC)c2c(=O)c(O)c(-c3ccc(OC)c(OC)c3)oc2c1,-10.3
7,CNCc1ccccc1,-9.64
8,COc1cc(OC)cc(OC)c1,-17.1
9,COc1cc2c(cc1O)C(Cc1ccc(O)cc1)N(C)CC2 (stereo not given),-12.4
10,Cc1cc(=O)oc2cc(O)c(O)cc12,-17.5
11,C[n+]1cc2c3c(ccc2c2ccc4cc5c(cc4c21)OCO5)OCO3,-28.2
12,COc1ccc2c(c1)OCC(Cc1ccc(O)c(OC)c1)C2=O (stereo not given),-1.67
13,Nc1ncnc2c1ncn2[C@@H]1O[C@H](CO)[C@@H](O)[C@H]1O,-19.3
14,Clc1ccc(CSC(Cn2ccnc2)c2ccc(Cl)cc2Cl)cc1 (stereo not given),77.1
15,CN(C)CCN(Cc1ccccc1)c1ccccn1,8.17
16,C=CC1=C(C)c2cc3[nH]c(cc4nc(cc5[nH]c(cc1n2)c(C)c5CCC(=O)O)C(CCC(=O)O)=C4C)c(C)c3C=C,-2.71
17,NCCCCCCNS(=O)(=O)c1cccc2c(Cl)cccc12,-8.99
18,C/C1=C\CC(C)(C)/C=C/CC2(C)OC2CC1 (stereo not given),-11.4
19,COc1ccc(-c2coc3c(O)c(OC)ccc3c2=O)cc1,-2.38
20,C=C1CCC(OC(C)=O)/C(C)=C/C[C@@H]2[C@@H]1CC2(C)C (stereo not given in full),5
21,CCCN(CCC)S(=O)(=O)c1ccc(C(=O)O)cc1,-10.4
22,CCN(CC)C(=O)c1cccc(C)c1,6.28
23,C[C@]12CC[C@@H]3c4ccc(O)cc4CC[C@H]3[C@@H]1CC[C@@H]2O,19.2

# Among those listed so far, 2 have a Cl atom:
row,Structure (SMILES),growth inhibition [%]
14,Clc1ccc(CSC(Cn2ccnc2)c2ccc(Cl)cc2Cl)cc1 (stereo not given),77.1
17,NCCCCCCNS(=O)(=O)c1cccc2c(Cl)cccc12,-8.99

# (continued)

row,Structure (SMILES),growth inhibition [%]
1,NC(Cc1cc(I)c(Oc2cc(I)c(O)c(I)c2)c(I)c1)C(=O)O (stereo not given),-12.2
2,CN(C)CC/C=C1/c2ccccc2Sc2ccc(Cl)cc21,-3.63
3,CC(=O)O[C@H]1C[C@@H](OC(C)=O)C(C)(C)[C@@H]2C[C@@H](OC(C)=O)[C@]3(C)[C@H](CC[C@@]4(C)[C@H](c5ccoc5)OC(=O)[C@H]5O[C@@]534)[C@@]12C,-3.64
4,CC(=O)[C@H]1CC[C@H]2[C@@H]3CCC4=CC(=O)CC[C@]4(C)[C@H]3CC[C@]12C,-5.54
5,CN(C)CCOC(c1ccccc1)c1ccccc1,-6.55
6,NC[C@@H]1CC[C@@H](N)[C@@H](O[C@H]2[C@H](O)[C@@H](O[C@H]3O[C@H](CO)[C@@H](O)[C@H](N)[C@H]3O)[C@H](N)C[C@@H]2N)O1,75.3
7,CC(C)=CCC/C(C)=C/C=C/C(C)=C/C=C/C(C)=C/C=C/C=C(C)/C=C/C=C(C)/C=C/C=C(\C)CCC=C(C)C,-0.0098
8,CC(=O)O[C@@H]1CC2C(C)(C)[C@H](O)C=C[C@]2(C)C2CC[C@@]3(C)[C@H](c4ccoc4)OC(=O)C4OC43[C@@]21C (stereo not given in full),-24.2
9,COc1ccc2ccc(=O)oc2c1CC=C(C)C,-8.87
10,N=C(N)NS(=O)(=O)c1ccc(N)cc1,-10.9
11,CC(=O)Oc1ccccc1C(=O)O,-34.9
12,CC(=O)O[C@@H]1c2c(ccc3ccc(=O)oc23)OC(C)(C)[C@@H]1OC(=O)CC(C)C,-6.11
13,COc1cc2c3cc1Oc1cc(ccc1O)C[C@@H]1c4c(cc(OC)c(O)c4Oc4ccc(cc4)C[C@@H]3N(C)CC2)CC[N+]1(C)C,12.2
14,CC1=C(C(=O)O)N2C(=O)[C@@H](NC(=O)[C@H](N)C3=CCC=CC3)[C@H]2SC1,0.521
15,N[C@@H](CCC(=O)N[C@@H](CS)C(=O)NCC(=O)O)C(=O)O,-7.25
16,N[C@@H]1CONC1=O,-4.19
17,CC(=O)O[C@]1(C(C)=O)CC[C@H]2[C@@H]3C=C(Cl)C4=CC(=O)[C@@H]5C[C@@H]5[C@]4(C)[C@H]3CC[C@@]21C,-19.7
18,COc1ccc2cc([C@H](C)CO)ccc2c1,-2.88
19,CC(=O)O[C@H]1CC[C@@]2(C)C(=CC(=O)[C@H]3[C@@H]4CC[C@H]([C@H](C)CCCC(C)C)[C@@]4(C)CC[C@@H]32)C1,-1.53
20,O=C(O)/C=C/c1ccc(O)c(O)c1,-14.1
21,NC(N)=Nc1ccc(Cl)cc1,-10.6
22,O=C(O)Cc1nn(Cc2ccc(Br)cc2F)c(=O)c2ccccc12,-16.7
